{"source": "the supplement of paper PMC10689618", "conditions_in_all_cases": "24 h", "key": {"Human fetal astrocytes [1]": {"system": "Human fetal astrocytes", "assay": "loss of total cells relative to no-compound high-control median (toxicity); higher = more toxic (fewer cells)"}, "Human fetal astrocytes [2]": {"system": "Human fetal astrocytes", "assay": "synaptosome phagocytosis (pHrodo/calcein intensity ratio) relative to plate median of data wells; higher = more phagocytosis"}, "Human fetal astrocytes [3]": {"system": "Human fetal astrocytes", "assay": "loss of total cells relative to no-compound high-control median (toxicity); higher = more toxic (fewer cells)", "remark": "listed apart in the source"}}, "note": "Counter-ions that a name gives are not always drawn. This is one part of the list. Repeats are few or missing, and single values can be far off.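 Labelled rat cortical synaptosomes were engulfed by primary human fetal astrocytes. Engulfment equaled a red/green ratio, corrected for calcein live-cell signal and normalized to the plate median. Compounds were toxic when calcein dropped over 30%, and reduced phagocytosis when below 70% of the median above 5 µM.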", "data": [{"smiles": "O=C(O)c1cc2cc(Cc3cccnc3)ccc2o1", "note": "[Furegrelate sodium]", "values": [{"measurement": "loss of total cells", "setting": "Human fetal astrocytes [1]; 1.39 µM", "result": 11.3, "unit": "%"}, {"measurement": "loss of total cells", "setting": "Human fetal astrocytes [1]; 2.78 µM", "result": -12.8, "unit": "%"}, {"measurement": "loss of total cells", "setting": "Human fetal astrocytes [1]; 5.56 µM", "result": 1.6, "unit": "%"}, {"measurement": "loss of total cells", "setting": "Human fetal astrocytes [1]; 11.11 µM", "result": -26.5, "unit": "%"}, {"measurement": "loss of total cells", "setting": "Human fetal astrocytes [1]; 22.22 µM", "result": -9.6, "unit": "%"}, {"measurement": "synaptosome phagocytosis", "setting": "Human fetal astrocytes [2]; 1.39 µM", "result": 98, "unit": "%"}, {"measurement": "synaptosome phagocytosis", "setting": "Human fetal astrocytes [2]; 2.78 µM", "result": 130, "unit": "%"}, {"measurement": "synaptosome phagocytosis", "setting": "Human fetal astrocytes [2]; 5.56 µM", "result": 137, "unit": "%"}, {"measurement": "synaptosome phagocytosis", "setting": "Human fetal astrocytes [2]; 11.11 µM", "result": 130, "unit": "%"}, {"measurement": "synaptosome phagocytosis", "setting": "Human fetal astrocytes [2]; 22.22 µM", "result": 108, "unit": "%"}]}, {"smiles": "O=C(OCCN1CCCCC1)c1c[nH]c2ccccc12", "values": [{"measurement": "loss of total cells", "setting": "Human fetal astrocytes [1]; 1.39 µM", "result": 4.6, "unit": "%"}, {"measurement": "loss of total cells", "setting": "Human fetal astrocytes [1]; 2.78 µM", "result": -6.8, "unit": "%"}, {"measurement": "loss of total cells", "setting": "Human fetal astrocytes [1]; 5.56 µM", "result": -4.9, "unit": "%"}, {"measurement": "loss of total cells", "setting": "Human fetal astrocytes [1]; 11.11 µM", "result": 6.7, "unit": "%"}, {"measurement": "loss of total cells", "setting": "Human fetal astrocytes [1]; 22.22 µM", "result": -8, "unit": "%"}, {"measurement": "synaptosome phagocytosis", "setting": "Human fetal astrocytes [2]; 1.39 µM", "result": 111, "unit": "%"}, {"measurement": "synaptosome phagocytosis", "setting": "Human fetal astrocytes [2]; 2.78 µM", "result": 95.6, "unit": "%"}, {"measurement": "synaptosome phagocytosis", "setting": "Human fetal astrocytes [2]; 5.56 µM", "result": 89.1, "unit": "%"}, {"measurement": "synaptosome phagocytosis", "setting": "Human fetal astrocytes [2]; 11.11 µM", "result": 86.8, "unit": "%"}, {"measurement": "synaptosome phagocytosis", "setting": "Human fetal astrocytes [2]; 22.22 µM", "result": 93, "unit": "%"}]}, {"smiles": "CCNC(=O)[C@H]1O[C@@H](n2cnc3c(N)nc(NCCc4ccc(CCC(=O)O)cc4)nc32)[C@H](O)[C@@H]1O", "values": [{"measurement": "loss of total cells", "setting": "Human fetal astrocytes [1]; 1.39 µM", "result": 9.6, "unit": "%"}, {"measurement": "loss of total cells", "setting": "Human fetal astrocytes [1]; 2.78 µM", "result": 4.3, "unit": "%"}, {"measurement": "loss of total cells", "setting": "Human fetal astrocytes [1]; 5.56 µM", "result": 11.5, "unit": "%"}, {"measurement": "loss of total cells", "setting": "Human fetal astrocytes [1]; 11.11 µM", "result": -16.6, "unit": "%"}, {"measurement": "synaptosome phagocytosis", "setting": "Human fetal astrocytes [2]; 1.39 µM", "result": 112, "unit": "%"}, {"measurement": "synaptosome phagocytosis", "setting": "Human fetal astrocytes [2]; 2.78 µM", "result": 100, "unit": "%"}, {"measurement": "synaptosome phagocytosis", "setting": "Human fetal astrocytes [2]; 5.56 µM", "result": 94.6, "unit": "%"}, {"measurement": "synaptosome phagocytosis", "setting": "Human fetal astrocytes [2]; 11.11 µM", "result": 89.4, "unit": "%"}]}, {"smiles": "O=C1OC2(c3ccc(O)cc3Oc3cc(O)ccc32)c2ccccc21", "values": [{"measurement": "loss of total cells", "setting": "Human fetal astrocytes [3]; 1.39 µM", "result": 3.3, "unit": "%"}, {"measurement": "loss of total cells", "setting": "Human fetal astrocytes [3]; 2.78 µM", "result": -10.7, "unit": "%"}, {"measurement": "loss of total cells", "setting": "Human fetal astrocytes [3]; 5.56 µM", "result": 21.3, "unit": "%"}, {"measurement": "loss of total cells", "setting": "Human fetal astrocytes [3]; 11.11 µM", "result": -28.9, "unit": "%"}, {"measurement": "loss of total cells", "setting": "Human fetal astrocytes [3]; 22.22 µM", "result": -26.6, "unit": "%"}]}, {"smiles": "Cn1c(=O)c2[nH]c(C3CCCC3)nc2n(C)c1=O", "note": "[8-Cyclopentyl-1,3-dimethylxanthine]", "values": [{"measurement": "loss of total cells", "setting": "Human fetal astrocytes [1]; 22.22 µM", "result": -0.8, "unit": "%"}, {"measurement": "synaptosome phagocytosis", "setting": "Human fetal astrocytes [2]; 22.22 µM", "result": 123, "unit": "%"}]}, {"smiles": "NCC(O)C1CCCCCCC1", "note": "(stereo not given) [2-Cyclooctyl-2-hydroxyethylamine hydrochloride]", "values": [{"measurement": "loss of total cells", "setting": "Human fetal astrocytes [1]; 1.39 µM", "result": 5.4, "unit": "%"}, {"measurement": "loss of total cells", "setting": "Human fetal astrocytes [1]; 2.78 µM", "result": -11.1, "unit": "%"}, {"measurement": "loss of total cells", "setting": "Human fetal astrocytes [1]; 5.56 µM", "result": -4.9, "unit": "%"}, {"measurement": "loss of total cells", "setting": "Human fetal astrocytes [1]; 11.11 µM", "result": -8.5, "unit": "%"}, {"measurement": "loss of total cells", "setting": "Human fetal astrocytes [1]; 22.22 µM", "result": 2.4, "unit": "%"}, {"measurement": "synaptosome phagocytosis", "setting": "Human fetal astrocytes [2]; 1.39 µM", "result": 104, "unit": "%"}, {"measurement": "synaptosome phagocytosis", "setting": "Human fetal astrocytes [2]; 2.78 µM", "result": 94.3, "unit": "%"}, {"measurement": "synaptosome phagocytosis", "setting": "Human fetal astrocytes [2]; 5.56 µM", "result": 113, "unit": "%"}, {"measurement": "synaptosome phagocytosis", "setting": "Human fetal astrocytes [2]; 11.11 µM", "result": 108, "unit": "%"}, {"measurement": "synaptosome phagocytosis", "setting": "Human fetal astrocytes [2]; 22.22 µM", "result": 121, "unit": "%"}]}, {"smiles": "CN1C2CCC1CC(OC(=O)C(O)c1ccccc1)C2", "note": "(stereo not given)", "values": [{"measurement": "loss of total cells", "setting": "Human fetal astrocytes [3]; 1.39 µM", "result": 7.4, "unit": "%"}, {"measurement": "loss of total cells", "setting": "Human fetal astrocytes [3]; 2.78 µM", "result": -19.3, "unit": "%"}, {"measurement": "loss of total cells", "setting": "Human fetal astrocytes [3]; 5.56 µM", "result": 0, "unit": "%"}, {"measurement": "loss of total cells", "setting": "Human fetal astrocytes [3]; 11.11 µM", "result": 0.9, "unit": "%"}, {"measurement": "loss of total cells", "setting": "Human fetal astrocytes [3]; 22.22 µM", "result": 19.8, "unit": "%"}]}, {"smiles": "O=C1C=CC2=C3c4cc(O)c(O)cc4CC3(O)COC2=C1", "note": "(stereo not given)", "values": [{"measurement": "loss of total cells", "setting": "Human fetal astrocytes [3]; 1.39 µM", "result": -1.1, "unit": "%"}, {"measurement": "loss of total cells", "setting": "Human fetal astrocytes [3]; 2.78 µM", "result": 3.3, "unit": "%"}, {"measurement": "loss of total cells", "setting": "Human fetal astrocytes [3]; 5.56 µM", "result": 16.8, "unit": "%"}, {"measurement": "loss of total cells", "setting": "Human fetal astrocytes [3]; 11.11 µM", "result": 31, "unit": "%"}, {"measurement": "loss of total cells", "setting": "Human fetal astrocytes [3]; 22.22 µM", "result": 23.3, "unit": "%"}]}, {"smiles": "Cc1cc(/C=C/c2ccc3cc(N(C)C)ccc3[n+]2C)c(C)n1-c1ccccc1", "values": [{"measurement": "loss of total cells", "setting": "Human fetal astrocytes [3]; 1.39 µM", "result": 6.8, "unit": "%"}, {"measurement": "loss of total cells", "setting": "Human fetal astrocytes [3]; 2.78 µM", "result": 4.4, "unit": "%"}, {"measurement": "loss of total cells", "setting": "Human fetal astrocytes [3]; 5.56 µM", "result": 13.9, "unit": "%"}, {"measurement": "loss of total cells", "setting": "Human fetal astrocytes [3]; 11.11 µM", "result": 36, "unit": "%"}, {"measurement": "loss of total cells", "setting": "Human fetal astrocytes [3]; 22.22 µM", "result": 21.6, "unit": "%"}]}, {"smiles": "COc1ccc2c(=O)c(CC(=O)O)coc2c1", "values": [{"measurement": "loss of total cells", "setting": "Human fetal astrocytes [3]; 1.39 µM", "result": -7.6, "unit": "%"}, {"measurement": "loss of total cells", "setting": "Human fetal astrocytes [3]; 2.78 µM", "result": 8, "unit": "%"}, {"measurement": "loss of total cells", "setting": "Human fetal astrocytes [3]; 5.56 µM", "result": -13.7, "unit": "%"}, {"measurement": "loss of total cells", "setting": "Human fetal astrocytes [3]; 11.11 µM", "result": 9.7, "unit": "%"}, {"measurement": "loss of total cells", "setting": "Human fetal astrocytes [3]; 22.22 µM", "result": -3.3, "unit": "%"}]}, {"smiles": "NCC=CC(=O)O", "note": "(stereo in doubt) [cis-4-Aminocrotonic acid]", "values": [{"measurement": "loss of total cells", "setting": "Human fetal astrocytes [1]; 1.39 µM", "result": -7.7, "unit": "%"}, {"measurement": "loss of total cells", "setting": "Human fetal astrocytes [1]; 2.78 µM", "result": -12.9, "unit": "%"}, {"measurement": "loss of total cells", "setting": "Human fetal astrocytes [1]; 5.56 µM", "result": -11.5, "unit": "%"}, {"measurement": "loss of total cells", "setting": "Human fetal astrocytes [1]; 11.11 µM", "result": -11.2, "unit": "%"}, {"measurement": "loss of total cells", "setting": "Human fetal astrocytes [1]; 22.22 µM", "result": -1.9, "unit": "%"}, {"measurement": "synaptosome phagocytosis", "setting": "Human fetal astrocytes [2]; 1.39 µM", "result": 84.4, "unit": "%"}, {"measurement": "synaptosome phagocytosis", "setting": "Human fetal astrocytes [2]; 2.78 µM", "result": 90.7, "unit": "%"}, {"measurement": "synaptosome phagocytosis", "setting": "Human fetal astrocytes [2]; 5.56 µM", "result": 117, "unit": "%"}, {"measurement": "synaptosome phagocytosis", "setting": "Human fetal astrocytes [2]; 11.11 µM", "result": 90.2, "unit": "%"}, {"measurement": "synaptosome phagocytosis", "setting": "Human fetal astrocytes [2]; 22.22 µM", "result": 116, "unit": "%"}]}, {"smiles": "NS(=O)(=O)c1cc2c(cc1Cl)N=CNS2(=O)=O", "note": "[Chlorothiazide]", "values": [{"measurement": "loss of total cells", "setting": "Human fetal astrocytes [1]; 1.39 µM", "result": -11.7, "unit": "%"}, {"measurement": "loss of total cells", "setting": "Human fetal astrocytes [1]; 2.78 µM", "result": -5.7, "unit": "%"}, {"measurement": "loss of total cells", "setting": "Human fetal astrocytes [1]; 5.56 µM", "result": -0.5, "unit": "%"}, {"measurement": "loss of total cells", "setting": "Human fetal astrocytes [1]; 11.11 µM", "result": -19.3, "unit": "%"}, {"measurement": "loss of total cells", "setting": "Human fetal astrocytes [1]; 22.22 µM", "result": -5.6, "unit": "%"}, {"measurement": "synaptosome phagocytosis", "setting": "Human fetal astrocytes [2]; 1.39 µM", "result": 112, "unit": "%"}, {"measurement": "synaptosome phagocytosis", "setting": "Human fetal astrocytes [2]; 2.78 µM", "result": 124, "unit": "%"}, {"measurement": "synaptosome phagocytosis", "setting": "Human fetal astrocytes [2]; 5.56 µM", "result": 94.2, "unit": "%"}, {"measurement": "synaptosome phagocytosis", "setting": "Human fetal astrocytes [2]; 11.11 µM", "result": 98.6, "unit": "%"}, {"measurement": "synaptosome phagocytosis", "setting": "Human fetal astrocytes [2]; 22.22 µM", "result": 109, "unit": "%"}]}, {"smiles": "CN1[C@@H]2CC[C@H]1C[C@@H](OC(=O)C(O)c1ccccc1)C2", "note": "(mixture of isomers) [DL-Homatropine hydrobromide]", "values": [{"measurement": "loss of total cells", "setting": "Human fetal astrocytes [1]; 1.39 µM", "result": 7.1, "unit": "%"}, {"measurement": "loss of total cells", "setting": "Human fetal astrocytes [1]; 2.78 µM", "result": -35, "unit": "%"}, {"measurement": "loss of total cells", "setting": "Human fetal astrocytes [1]; 5.56 µM", "result": 8.2, "unit": "%"}, {"measurement": "loss of total cells", "setting": "Human fetal astrocytes [1]; 11.11 µM", "result": -9.4, "unit": "%"}, {"measurement": "loss of total cells", "setting": "Human fetal astrocytes [1]; 22.22 µM", "result": 11.2, "unit": "%"}]}]}
